In paper PMC6662813 one finds binding data, which are given here for one molecule.

The test concerns the target cMyc-cRaf (mouse) (UniProt Q99N57). The test can be described thus: co-IP; HEK293T expressing Flag-Crabp1-HA and cMyc-cRaf, with or without atRA for 15 min; lysates precipitated with anti-cMyc antibody; western blot. A general note: Immunoblotting shows a protein as a band on a membrane.

Results are given in words; binding and its absence hold for the method and conditions named. In cells and extracts the contact can be indirect. Some entries that bind do so weakly or less than the wild type.

B1: Kinase suppressor of Ras (Ksr1), endogenous in HEK293T (protein, UniProt Q8IVT5 1-923)
chain: MDRAALRAAAMGEKKEGGGGGDAAAAEGGAGAAASRALQQCGQLQKLIDISIGSLRGLRTKCAVSNDLTQQEIRTLEAKLVRYICKQRQCKLSVAPGERTPELNSYPRFSDWLYTFNVRPEVVQEIPRDLTLDALLEMNEAKVKETLRRCGASGDECGRLQYALTCLRKVTGLGGEHKEDSSWSSLDARRESGSGPSTDTLSAASLPWPPGSSQLGRAGNSAQGPRSISVSALPASDSPTPSFSEGLSDTCIPLHASGRLTPRALHSFITPPTTPQLRRHTKLKPPRTPPPPSRKVFQLLPSFPTLTRSKSHESQLGNRIDDVSSMRFDLSHGSPQMVRRDIGLSVTHRFSTKSWLSQVCHVCQKSMIFGVKCKHCRLKCHNKCTKEAPACRISFLPLTRLRRTESVPSDINNPVDRAAEPHFGTLPKALTKKEHPPAMNHLDSSSNPSSTTSSTPSSPAPFPTSSNPSSATTPPNPSPGQRDSRFNFPAAYFIHHRQQFIFPVPSAGHCWKCLLIAESLKENAFNISAFAHAAPLPEAADGTRLDDQPKADVLEAHEAEAEEPEAGKSEAEDDEDEVDDLPSSRRPWRGPISRKASQTSVYLQEWDIPFEQVELGEPIGQGRWGRVHRGRWHGEVAIRLLEMDGHNQDHLKLFKKEVMNYRQTRHENVVLFMGACMNPPHLAIITSFCKGRTLHSFVRDPKTSLDINKTRQIAQEIIKGMGYLHAKGIVHKDLKSKNVFYDNGKVVITDFGLFGISGVVREGRRENQLKLSHDWLCYLAPEIVREMTPGKDEDQLPFSKAADVYAFGTVWYELQARDWPLKNQAAEASIWQIGSGEGMKRVLTSVSLGKEVSEILSACWAFDLQERPSFSLLMDMLEKLPKLNRRLSHPGHFWKSADINSSKVVPRFERFGLGVLESSNPKM
With B1, the binding result is reported as “binds”.
